Consider 58 molecules from the supplement of paper PMC12578635.

The other results are listed elsewhere or left out. No stated cut-off is given here; in the data, active = 150% or more and inactive = the rest. Most values come without repeats; read them as rough.

This experiment concerns Staphylococcus aureus JE2-lux inside RAW 264.7 macrophages. The experiment in a line: intracellular bacterial bioluminescence relative to DMSO vehicle; higher = higher intracellular bacterial metabolic activity. As to conditions: 10 µM; treatment time 4 h; gentamicin 50 µg/ml.
Take `COC(=O)c1ccc2nc(NC(=O)c3ccc(C)cc3C)sc2c1`: the intracellular bacterial bioluminescence is inactive: 96.2%.
In the case of `C/C(=N/NC(=O)CSc1nc2ccccc2[nH]1)c1cccs1`, the intracellular bacterial bioluminescence was inactive: 98.5%.
As to `CC(=O)Nc1ccc(Nc2nc(-c3ccccc3)c3cc(C)ccc3n2)cc1`, the intracellular bacterial bioluminescence is inactive: 74.6%.
With `CN1C(=O)c2cccc(NC(=O)c3cc(=O)c4ccccc4o3)c2C1=O`, the intracellular bacterial bioluminescence was inactive: 118%.
The result for `COc1cccc(/C=N/NC(=O)c2n[nH]c3c2CCc2ccccc2-3)c1` reads inactive: 98.1%; that for `CCCc1cc(=O)[nH]c(SCC(=O)Nc2cc(C)on2)n1`, inactive: 133%.
With `CSc1nc2ccc3nc(Nc4nc5cc6c(cc5s4)OCO6)sc3c2s1`, the intracellular bacterial bioluminescence was inactive: 124%.
On to `Cc1ccc(N2C(=O)CC(Sc3ccccc3C(=O)O)C2=O)c(Br)c1` (stereo not drawn), for which the intracellular bacterial bioluminescence was inactive: 92.1%.
In the case of `COc1ccc2o/c(=N\c3cccc(C#N)c3)c(C(=O)NC(C)=O)cc2c1`, the intracellular bacterial bioluminescence is inactive: 102%.
For `CC(C)n1c(CN2CCN(c3ccc(F)cc3)CC2)nc2c1c(=O)n(C)c(=O)n2C`, the intracellular bacterial bioluminescence is inactive: 125%.
In the case of `COc1ccccc1Nc1nc(NCc2ccco2)c2ccccc2n1`, the intracellular bacterial bioluminescence was inactive: 86.2%.
Regarding `O=C(NCc1ccccc1)C(c1ccco1)N(Cc1ccc(F)cc1)C(=O)c1ccccn1` (stereo not drawn), the intracellular bacterial bioluminescence was inactive: 83.4%.
For the molecule `COc1ccc(OC)c(-n2c(C)cn3c4c(=O)[nH]c(=O)n(C)c4nc23)c1`, the intracellular bacterial bioluminescence was inactive: 122%.
For the molecule `CCOC(=O)c1ccc(NC(=O)CSc2nccn2-c2cccc(C)c2)cc1`, the intracellular bacterial bioluminescence was inactive: 67%.
Consider `Cc1cc2ccccc2n2c(=O)n(CCNC(=O)CN3C(=O)CCC3=O)nc12`, for which the intracellular bacterial bioluminescence is inactive: 98.6%.
As for `COc1ccc([N+](=O)[O-])cc1NC(=O)CCS(=O)(=O)c1ccc(F)cc1`, the intracellular bacterial bioluminescence was active: 156%.
For `O=C1C=C(Nc2ccc(Cl)cc2)C(=O)N1c1cccc(C(F)(F)F)c1`, the intracellular bacterial bioluminescence was inactive: 89.6%.
As to `CCN(CC)CCNC(=O)c1cc2c(=O)n3ccccc3nc2s1`, the intracellular bacterial bioluminescence was inactive: 83.9%.
On to `Cc1ccc(-n2ccnc2SCc2nc(-c3ccc(Cl)cc3)no2)cc1`, for which the intracellular bacterial bioluminescence was inactive: 49.8%.
Regarding `COc1ccc(C(=O)NCc2ccc3c4c(cccc24)C(=O)N3)cc1OC`, the intracellular bacterial bioluminescence is inactive: 104%.
With `COc1cccc2sc(NC(=O)c3coc4ccccc4c3=O)nc12`, the intracellular bacterial bioluminescence is inactive: 45.9%.
`O=C(CCCS(=O)(=O)c1ccccc1)Nc1nc2ccc([N+](=O)[O-])cc2s1`: the intracellular bacterial bioluminescence is inactive: 122%.
As to `Cc1ccc2cc3c(nc2c1)sc1c(SCC(=O)NCc2ccccc2)ncnc13`, the intracellular bacterial bioluminescence was inactive: 107%.
As for `Cn1c(SCC(=O)NCCCc2ccccc2)nc2c(-c3ccccc3)csc2c1=O`, the intracellular bacterial bioluminescence is inactive: 102%.
As for `CC1(C(=O)Nc2ncc(Cc3cccc(C(F)(F)F)c3)s2)Cc2ccccc2C(=O)O1` (stereo not drawn), the figure is inactive: 72.6%.
The result for `CCc1ccccc1NC(=O)Cc1c(C)nn(-c2nc(-c3ccc(C)cc3)cs2)c1O` reads inactive: 99.4%.
Consider `Cc1ccc(S(=O)(=O)Nc2ccccc2C(=O)Nc2sc3c(c2C(N)=O)CC(C)CC3)cc1` (stereo not drawn), for which the intracellular bacterial bioluminescence was inactive: 100%.
For `CC(=O)Nc1ccc2nc(NC(=O)C(C)NS(=O)(=O)c3ccc(C)cc3)sc2c1` (stereo not drawn), the intracellular bacterial bioluminescence is active: 150%.
`COc1cccc2cc(C(=O)NCc3ccc4c(c3)OCO4)c(=O)oc12`: the intracellular bacterial bioluminescence was inactive: 115%.
Regarding `CCOc1ccccc1-c1cc(C(=O)Nc2ccc3c(c2)nc(CC)n3C)[nH]n1`, the intracellular bacterial bioluminescence is inactive: 91.6%.
Regarding `Cc1oc(-c2ccno2)cc1S(=O)(=O)N1c2ccccc2CC1C` (stereo not drawn), the intracellular bacterial bioluminescence is inactive: 95.4%.
Take `O=C(CCn1c(=S)[nH]c2ccccc2c1=O)N1CCOCC1`: the intracellular bacterial bioluminescence is inactive: 59%.
For the molecule `Cc1ccc(-n2ccnc(NCCC(C)C)c2=O)cc1Cl`, the intracellular bacterial bioluminescence is inactive: 60.1%.
The result for `CCOc1ccc(NC(=O)Cn2nnc(C(=O)Nc3ccccc3F)c2N)cc1` reads inactive: 82.9%; that for `COc1cccc(NC(=S)Nc2c(C)n(C)n(-c3ccccc3)c2=O)c1`, inactive: 104%.
As for `Nn1c(SCc2ccccc2)nnc1-c1ccco1`, the intracellular bacterial bioluminescence was inactive: 64.8%.
For the molecule `Cc1nc2cc(-c3noc(CNS(=O)(=O)c4ccccc4)n3)ccc2n(C2CCCC2)c1=O`, the intracellular bacterial bioluminescence was inactive: 97.2%.
Turning to `CCN1CCC(CCc2ccc(NC(=O)c3cccc4c3C(=O)N(C)C4)cc2)C(C)C1` (stereo not drawn), the intracellular bacterial bioluminescence was inactive: 129%.
For `CC1=NN(Cc2ccc(C)cc2)c2nc3c(c(=O)n(C)c(=O)n3C)n2C1`, the intracellular bacterial bioluminescence was inactive: 103%.
The result for `COc1ccc(CCNC(=O)C2CCCN2C(=O)Nc2ccc(F)cc2)cc1OC` (stereo not drawn) reads inactive: 113%.
In the case of `CCOC(=O)c1sc(Nc2nc3ccc(F)cc3s2)nc1C`, the intracellular bacterial bioluminescence was inactive: 108%.
On to `Cc1nc(N2CCN(C(=O)c3ccco3)CC2)c2nnn(Cc3ccccc3)c2n1`, for which the intracellular bacterial bioluminescence was inactive: 38%.
In the case of `COc1cc(Nc2ncc3c(n2)CCN(S(=O)(=O)c2cccc4nsnc24)C3)cc(OC)c1`, the intracellular bacterial bioluminescence was inactive: 47.4%.
Regarding `Cc1cc(NC(=O)c2c3c(nc4ccccc24)C(=O)N(C2CCCCC2)C3)no1`, the intracellular bacterial bioluminescence was inactive: 110%.
The result for `O=C1NC(c2ccc(Cl)cc2)c2c1oc1ccccc1c2=O` (stereo not drawn) reads inactive: 92.4%; that for `CC(=O)Cc1nsc(NC(=O)c2ccoc2COc2ccc(C)cc2)n1`, inactive: 113%.
The result for `C=CCn1c(=O)c2c3c(sc2n2c(Nc4ccccc4)nnc12)CCCC3` reads inactive: 109%; that for `C=CCOc1ccccc1/C=C1/SC(N2CCN(C)CC2)=NC1=O`, inactive: 85.2%; that for `O=C(NCc1ccc2c(c1)OCO2)C(=O)NCC(c1ccco1)N1CCN(c2ccccc2)CC1` (stereo not drawn), inactive: 76.4%.
For the molecule `CC(=O)NC1(c2ccccc2F)CCN(Cc2cc3ccccc3nc2N(C)C)CC1`, the intracellular bacterial bioluminescence was inactive: 107%.
With `O=C(Nc1cccc(NC(=O)c2ccccn2)c1)c1ccc2nccnc2c1`, the intracellular bacterial bioluminescence is inactive: 104%.
Take `O=C(Nc1ccc2ncsc2c1)c1cc2ccccc2oc1=O`: the intracellular bacterial bioluminescence was inactive: 111%.
Take `N#CC1=C(N)OC2=C(C(=O)CCC2)C1c1ccco1` (stereo not drawn): the intracellular bacterial bioluminescence is inactive: 120%.
For the molecule `Cc1nc2c(C(=O)NCc3cccnc3)cnn2c(O)c1Cc1ccc(F)cc1Cl`, the intracellular bacterial bioluminescence was inactive: 68.8%.
For the molecule `Cc1[nH]c2nc(N(Cc3ccc(Cl)cc3)C(=O)CCc3ccccc3)nn2c(=O)c1C`, the intracellular bacterial bioluminescence was inactive: 93.3%.
Take `Cc1ccc(Cc2nnc(-c3cc(NC(=O)Nc4ccc5c(c4)OCCO5)ccc3F)o2)cc1`: the intracellular bacterial bioluminescence was inactive: 48.7%.
As for `O=C(N1CCC(n2nc(C3CC3)ccc2=O)CC1)C1(c2ccccc2)CC1`, the figure is inactive: 100%.
The result for `CC[C@@H](Cn1nc(-c2ccc(F)c(F)c2)ccc1=O)NC(=O)Cc1ccccc1F` reads inactive: 110%.
